Data set [1] can be described thus: Behavior of compound in methanol under light irradiation with wavelength of 313 nm or 365 nm (absorbance; Test Examples 1, 2, 8, 9). In kind it is physicochemical. The settings on record: methanol solution, 313 nm and 365 nm. How it is done:
The compound (1)-1 obtained above was dissolved in methanol so as to have a concentration of 2.0×10^−5 mol/L. Then, using a mercury xenon lamp, the illuminance was set to 5 mW/cm^2, the exposure doses were set to 0, 10, 30, 60 and 100 mJ/cm^2, and the obtained methanol solution was irradiated with light having a wavelength of 313 nm. Then, the absorbance of the compound (1)-1 was measured.
The compound (1)-1 obtained above was dissolved in methanol so as to have a concentration of 2.0×10^−5 mol/L. Then, using an LED lamp, the illuminance was set to 10 mW/cm^2, the exposure doses were set to 0, 10, 30, 60 and 100 mJ/cm^2, and the obtained methanol solution was irradiated with light having a wavelength of 365 nm. Then, the absorbance of the compound (1)-1 was measured.
The compound (1)-2 obtained above was dissolved in methanol so as to have a concentration of 2.0×10^−5 mol/L. Then, using a mercury xenon lamp, the illuminance was set to 10 mW/cm^2, the exposure doses were set to 0, 30, 100, 200 and 300 mJ/cm^2, and the obtained methanol solution was irradiated with light having a wavelength of 313 nm. Then, the absorbance of the compound (1)-2 was measured. […]

A short description of data set [2]: UV curing of liquid epoxy compound (Test Example 5). To be noted: 365 nm, post-bake 80, 100 or 120° C. for 60 minutes, no curing accelerator.
A short description of data set [3]: Negative patterning using photoreactive composition (Test Example 10). To be noted: 2 mol % with respect to PGMA, 365 nm, 1000 mJ/cm^2, post-bake 80° C. 270 seconds.

Each structure is given as a SMILES string.

Turning to `O=C(/C=C/c1ccccc1O)Nc1ccncc1` [compound (1)-1], the “generation of a base by light irradiation (absorbance spectra)” value in data set [1] is on record as “a base was generated”. Moreover, the “curing of the liquid epoxy compound by UV irradiation” value in data set [2] is “it was possible to cure the liquid epoxy compound”.

Consider `CN(C(=O)/C=C/c1ccccc1O)c1ccncc1` [compound (1)-2], for which the “generation of a base by light irradiation (absorbance spectra)” value in data set [1] was “a base was generated”. Further, the “normalized film thickness (after development / before light irradiation)” value in data set [3] came out at 0.96. Further, in data set [3] (cyclohexanone 30 seconds), the “thickness of the coating film after development” value stood at 1.6 μm.

These data come from patent publication US12399427B2, “Photobase generator, compound, photoreactive composition and reaction product” (Tokyo University of Science Foundation, priority 2019, dated 2025).
